Record: PubChem BioAssay AID1508597 (Cure First, 2020)

- Test: 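Genes whose silencing sensitises or protects ovarian cancer cells against rucaparib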 (primary screen)
- System: human ovarian carcinoma lines grown from tumours: OCI-P5x (papillary serous) and OCI-C5x (clear cell)
- Knock-down reagent: siRNA pool against human genes, 1.25 pmol siRNA per well
- Timing: 72 h or 96 h, depending on the cell culture
- Treatment: rucaparib 20 µM (about IC30) or vehicle, present until read-out
- Measurement: 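Luminescent ATP-based viability assay read 72 or 96 h after transfection, depending on culture, given as normalised percent viability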
- Direction: viability, normalised: higher = more viable cells remaining
- Hit rule: 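Active when normalised viability falls below 80 percent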
- Meaning of the calls: active = viability under 80%; inactive = viability 80% or more
This is one part, drawn at random, of about 2,100 reagents tested. 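Calls flag viability under 80% in either arm, not effects specific to rucaparib; the reference for percent is not stated.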 A number with no mark means an inactive call. Some reagents were tested in more than one well and are listed for each. The record does not give: the 100% reference.

no.	Gene	rucaparib or vehicle	cell line	technical replicate	viability, normalised (%)
1	LIG3 (GeneID 3980)	Rucaparib	OCI-C5x (clear cell)	1	51.4 (active)
2	LIG3 (GeneID 3980)	Rucaparib	OCI-C5x (clear cell)	2	40.2 (active)
3	LIG3 (GeneID 3980)	Rucaparib	OCI-C5x (clear cell)	3	35.5 (active)
4	LIG3 (GeneID 3980)	Rucaparib	OCI-P5x (serous)	1	50.6 (active)
5	LIG3 (GeneID 3980)	Rucaparib	OCI-P5x (serous)	2	35.7 (active)
6	LIG3 (GeneID 3980)	Rucaparib	OCI-P5x (serous)	3	49.7 (active)
7	LIG3 (GeneID 3980)	Vehicle	OCI-C5x (clear cell)	1	56.3 (active)
8	LIG3 (GeneID 3980)	Vehicle	OCI-C5x (clear cell)	2	57.9 (active)
9	LIG3 (GeneID 3980)	Vehicle	OCI-C5x (clear cell)	3	31.3 (active)
10	LIG3 (GeneID 3980)	Vehicle	OCI-P5x (serous)	1	29.1 (active)
11	LIG3 (GeneID 3980)	Vehicle	OCI-P5x (serous)	2	42.3 (active)
12	LIG3 (GeneID 3980)	Vehicle	OCI-P5x (serous)	3	37.8 (active)
13	CDH4 (GeneID 1002)	Rucaparib	OCI-C5x (clear cell)	1	74.9 (active)
14	CDH4 (GeneID 1002)	Rucaparib	OCI-C5x (clear cell)	2	64.6 (active)
15	CDH4 (GeneID 1002)	Rucaparib	OCI-C5x (clear cell)	3	81.1
16	CDH4 (GeneID 1002)	Rucaparib	OCI-P5x (serous)	1	101
17	CDH4 (GeneID 1002)	Rucaparib	OCI-P5x (serous)	2	96.9
18	CDH4 (GeneID 1002)	Rucaparib	OCI-P5x (serous)	3	98.7
19	CDH4 (GeneID 1002)	Vehicle	OCI-C5x (clear cell)	1	81.2
20	CDH4 (GeneID 1002)	Vehicle	OCI-C5x (clear cell)	2	78.8 (active)
21	CDH4 (GeneID 1002)	Vehicle	OCI-C5x (clear cell)	3	79.6 (active)
22	CDH4 (GeneID 1002)	Vehicle	OCI-P5x (serous)	1	101
23	CDH4 (GeneID 1002)	Vehicle	OCI-P5x (serous)	2	79.7 (active)
24	CDH4 (GeneID 1002)	Vehicle	OCI-P5x (serous)	3	88.1

The list goes on; the last 4 above are carried over.
no.	Gene	rucaparib or vehicle	cell line	technical replicate	viability, normalised (%)
21	CDH4 (GeneID 1002)	Vehicle	OCI-C5x (clear cell)	3	79.6 (active)
22	CDH4 (GeneID 1002)	Vehicle	OCI-P5x (serous)	1	101
23	CDH4 (GeneID 1002)	Vehicle	OCI-P5x (serous)	2	79.7 (active)
24	CDH4 (GeneID 1002)	Vehicle	OCI-P5x (serous)	3	88.1
25	ARID4A (GeneID 5926)	Rucaparib	OCI-C5x (clear cell)	1	59.7 (active)
26	ARID4A (GeneID 5926)	Rucaparib	OCI-C5x (clear cell)	2	59.8 (active)
27	ARID4A (GeneID 5926)	Rucaparib	OCI-C5x (clear cell)	3	64.1 (active)
28	ARID4A (GeneID 5926)	Rucaparib	OCI-P5x (serous)	1	74.9 (active)
29	ARID4A (GeneID 5926)	Rucaparib	OCI-P5x (serous)	2	84.1
30	ARID4A (GeneID 5926)	Rucaparib	OCI-P5x (serous)	3	72 (active)
31	ARID4A (GeneID 5926)	Vehicle	OCI-C5x (clear cell)	1	40.6 (active)
32	ARID4A (GeneID 5926)	Vehicle	OCI-C5x (clear cell)	2	54.9 (active)
33	ARID4A (GeneID 5926)	Vehicle	OCI-C5x (clear cell)	3	64.6 (active)
34	ARID4A (GeneID 5926)	Vehicle	OCI-P5x (serous)	1	69.5 (active)
35	ARID4A (GeneID 5926)	Vehicle	OCI-P5x (serous)	2	73.9 (active)
36	ARID4A (GeneID 5926)	Vehicle	OCI-P5x (serous)	3	72 (active)
37	NME4 (GeneID 4833)	Rucaparib	OCI-C5x (clear cell)	1	54.6 (active)
38	NME4 (GeneID 4833)	Rucaparib	OCI-C5x (clear cell)	1	69.9 (active)
39	NME4 (GeneID 4833)	Rucaparib	OCI-C5x (clear cell)	2	54 (active)
40	NME4 (GeneID 4833)	Rucaparib	OCI-C5x (clear cell)	2	38.8 (active)
41	NME4 (GeneID 4833)	Rucaparib	OCI-C5x (clear cell)	2	50.9 (active)
42	NME4 (GeneID 4833)	Rucaparib	OCI-C5x (clear cell)	3	71.9 (active)
43	NME4 (GeneID 4833)	Rucaparib	OCI-C5x (clear cell)	3	52.2 (active)
44	NME4 (GeneID 4833)	Rucaparib	OCI-C5x (clear cell)	3	69.8 (active)
45	NME4 (GeneID 4833)	Rucaparib	OCI-P5x (serous)	1	55.4 (active)
46	NME4 (GeneID 4833)	Rucaparib	OCI-P5x (serous)	1	69.6 (active)
47	NME4 (GeneID 4833)	Rucaparib	OCI-P5x (serous)	1	92.3
48	NME4 (GeneID 4833)	Rucaparib	OCI-P5x (serous)	2	67.9 (active)
49	NME4 (GeneID 4833)	Rucaparib	OCI-P5x (serous)	2	54.6 (active)
50	NME4 (GeneID 4833)	Rucaparib	OCI-P5x (serous)	2	81.6
51	NME4 (GeneID 4833)	Rucaparib	OCI-P5x (serous)	3	103
52	NME4 (GeneID 4833)	Rucaparib	OCI-P5x (serous)	3	51.4 (active)
53	NME4 (GeneID 4833)	Rucaparib	OCI-P5x (serous)	3	68.1 (active)
54	NME4 (GeneID 4833)	Vehicle	OCI-C5x (clear cell)	1	48.3 (active)
55	NME4 (GeneID 4833)	Vehicle	OCI-C5x (clear cell)	1	67 (active)
56	NME4 (GeneID 4833)	Vehicle	OCI-C5x (clear cell)	1	36 (active)
57	NME4 (GeneID 4833)	Vehicle	OCI-C5x (clear cell)	2	37.4 (active)
58	NME4 (GeneID 4833)	Vehicle	OCI-C5x (clear cell)	2	59.7 (active)
59	NME4 (GeneID 4833)	Vehicle	OCI-C5x (clear cell)	2	38.1 (active)
60	NME4 (GeneID 4833)	Vehicle	OCI-C5x (clear cell)	3	46.6 (active)
61	NME4 (GeneID 4833)	Vehicle	OCI-C5x (clear cell)	3	39.2 (active)
62	NME4 (GeneID 4833)	Vehicle	OCI-C5x (clear cell)	3	41.7 (active)
63	NME4 (GeneID 4833)	Vehicle	OCI-P5x (serous)	1	88
64	NME4 (GeneID 4833)	Vehicle	OCI-P5x (serous)	1	64.1 (active)
65	NME4 (GeneID 4833)	Vehicle	OCI-P5x (serous)	1	64.4 (active)
66	NME4 (GeneID 4833)	Vehicle	OCI-P5x (serous)	2	80 (active)
67	NME4 (GeneID 4833)	Vehicle	OCI-P5x (serous)	2	77.7 (active)
68	NME4 (GeneID 4833)	Vehicle	OCI-P5x (serous)	2	56.4 (active)
69	NME4 (GeneID 4833)	Vehicle	OCI-P5x (serous)	3	55.7 (active)
70	NME4 (GeneID 4833)	Vehicle	OCI-P5x (serous)	3	68.6 (active)
71	NME4 (GeneID 4833)	Vehicle	OCI-P5x (serous)	3	87.9
